Data taken from the supplement of paper PMC10338343.
± gives the standard deviation. Only a part is listed here, and it is no random draw. Many entries were measured with a wide error.

Tested on: EfPiwi piRISC loaded with piRNA #1 (26 nt)
Experiment: pre-steady-state target cleavage rate (min^-1); guide: piRNA #1 5'p-UGAGGUAGUAGGUUGUAUAGUAUCCA; MIWI and MILI are mouse PIWI proteins and EfPiwi is from a freshwater sponge; tags in brackets are library labels; higher = faster piRNA-guided slicing of the target
Details: auxiliary factor: 500 nM Ephydatia muelleri Gtsf1
Procedure: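 Cleave-'n-Seq: a library of target RNAs (target site in constant flanks) at […] was incubated with 1 nM active freshwater sponge Ephydatia fluviatilis Piwi piRISC (synthetic 5'-monophosphorylated piRNA guide) with or without 500 nM EmGtsf1 at 33 °C for 1 min to 16 h. Uncleaved targets were sequenced and the pooled three trials fitted to a burst-and-steady-state model to give the pre-steady-state cleavage rate (min^-1). Sequence is the target site only. Fits with R² ≤ 0 are excluded.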

Row | Sequence | pre-steady-state target cleavage rate
1 | GGAGACCUAUGAUAACAACCUACUUCCACA | 0.000141 ± 0.023
2 | GGAGUGGAUACUUUACAACCUAGUACCUCA | 0.00167 ± 0.002
3 | GGAGAGGAUACAAUACAACCUACUUCCUCA | 0.00257 ± 0.002
4 | GGAGUGGAUACUAUACAACCUACAUGCUCA | 0.00184 ± 0.0028
5 | GGAGAGGAUAGUAUACAAGCUACUACCUCA | 0.00104 ± 0.0049
6 | GGAGUGGAUACUAUACUACCAACUACCUCA | 0.00428 ± 0.002
7 | GGAGACCUAUGAAUACUACCUACAACCUCA | 0.000209 ± 0.022
8 | GGAGUGGAUACUAUUCAACGUACUACCUCA | 0.00373 ± 0.0014
9 | GGAGUGGAUACUAUACAACCUCUACCUCA | 0.0673 ± 0.023
10 | GGAGACCUUAGUAUUCAACCUACUACCUCA | 0.00108 ± 0.0077
11 | GGAGACCUAUGAAUACAACCUAGUACGUCA | 0.00189 ± 0.0056
12 | GGAGUGGAUACUAUACAACCUACUACCGUCA | 0.00748 ± 0.0027
13 | GGAGUGGAUACUAUACAACCUACUUGCUCA | 0.0047 ± 0.0026
14 | GGAGAGGAUACUAUACAACCUCUACCUCA | 0.00619 ± 0.0034
15 | GGAGACGAUACUAUACAACCACUACCUCA | 0.00795 ± 0.0036
16 | GGAGACGAUACAAUACAACCUACUACCUGA | 0.0025 ± 0.0015
17 | GGAGAGGAUUCUAUAGAACCUACUACCUCA | 0.000611 ± 0.0059
18 | GGAGACCUUACUAUACAACCAACUAGCUCA | 0.0026 ± 0.0051
19 | GGAGACGAUACUAUACAACCUACUAGCUGA | 0.00481 ± 0.0027
20 | GGAGACCAUACUUUACAACCUAGUACCUCA | 0.00535 ± 0.0043

Row | Sequence | pre-steady-state target cleavage rate
21 | GGAGACCUAUGAUAACAACCGUACUACCUCA | 0.000798 ± 0.013
22 | GGAGACCUAACUAUACAACCUACUACCUCU [g2:g21:cont:t1U] | 0.915 ± 0.29
23 | GGAGACCUAACUUUAGAACCUACUACCUCA | 0.000226 ± 0.013
24 | GGAGACGAUACUAAACAACCUAGUACCUCA | 0.00281 ± 0.0023
25 | GGAGACCUAUGAUAUGUACGUACUACCACA | 0.000117 ± 0.02
26 | GGAGACCUAUGAUAACAGCCUACUACCUCA | 0.00116 ± 0.0052
27 | GGAGACCUAUCAAUACAACCUACUACCUGA | 0.00251 ± 0.004
28 | GGAGACCUUACUAUACUACCUAGUACCUCA | 0.00194 ± 0.0024
29 | GGAGACGAUACUAAACAACGUACUACCUCA | 0.00192 ± 0.0019
30 | GGAGACCUAUGAUAUCGAACCUACUACCUCA | 0.000507 ± 0.01
31 | GGAGUGGAUACUAUACAACCACUACCUCA | 0.00771 ± 0.0031
32 | GGAGACCUUACUUUACAACGUACUACCUCA | 0.00258 ± 0.0039
33 | GGAGUGGAUACUAACAACCUACUACCUCA | 0.00566 ± 0.0038
34 | GGAGACCUAUGAAUACAACCUACUACCUCA [g2:g18:cont:t1A] | 0.00706 ± 0.0032
35 | GGAGACCUAUGAUAUGUACCUAUUACCUCA | < 0.0001
36 | GGAGACCUUAGUAUACAACCUACUACCUGA | 0.00359 ± 0.0036
37 | GGAGACCUAUGAAUACAUCCAACUACCUCA | 0.00024 ± 0.013
38 | GGAGAGGAUACUAAACAACCUACUUCCUCA | 0.00239 ± 0.0016
39 | GGAGACCUAUCUAUACAACGUACUACGUCA | 0.00215 ± 0.0025
40 | GGAGACCUAUCAAAACAACCUACUACCUCA | 0.00188 ± 0.0062

As entered above.
Under pre-steady-state target cleavage rate, GGAGUGGAUACUAUUCAACGUACUACCUCA has 0.00373 ± 0.0014
Under pre-steady-state target cleavage rate, GGAGUGGAUACUUUACAACCUAGUACCUCA has 0.00167 ± 0.002
Under pre-steady-state target cleavage rate, GGAGACCUAACUUUAGAACCUACUACCUCA has 0.000226 ± 0.013
